Reference: PubChem BioAssay AID493014 (National Center for Advancing Translational Sciences (NCATS), 2011)
This is one part of the list. These are further read-outs of the screen, such as a control signal, another cell line or another target. No call is given for them. Compounds called inactive in the main read-out are mostly missing here. Potencies come from curve fits of mixed quality, noted in brackets.

Assay: qHTS Assay to Find Inhibitors of Chronic Active B-Cell Receptor Signaling
Details: ABC-DLBCL IkBa-CBG/CBR reporter, luminescence ratio (green luciferase fused to IkBa over red control in TMD8 lymphoma cells), 4 h
Method in brief: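 Doxycycline induced both beetle luciferases in TMD8 lymphoma cells; IKK-driven degradation limits the IkappaBalpha-fused green signal, while red luminescence normalises for cell number and nonspecific effects. Compounds tested up to 46 uM, 4 hrs.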

[1] = measured here: CBR red luminescence, cell number
[2] = measured here: IkBa-CBG green luminescence

Structure (SMILES) | AC50 [1] | AC50 [2]
CSCCC(NC(=O)c1ccco1)C(=O)NCc1ccc(F)cc1 (stereo not given) | 6.51 µM [falling, single point] | 
COc1cc2sc(-c3ccc(S(C)(=O)=O)cc3)c(C#CCO)c2cc1OC | 29.1 µM [rising, single point] | 16.4 µM [falling, partial curve]
CC(=O)c1ccc(Nc2cc(C)nc3c(C)cccc23)cc1 | 35.5 µM [falling, single point] | 17.8 µM [rising, single point]
Cc1cc(F)ccc1S(=O)(=O)NCC(c1cccnc1)N1CCc2ccccc21 (stereo not given) | 8.91 µM [falling, partial curve] | 
CCOc1ccccc1NC(=O)CSC1=NN2CCCC(=O)N=C2S1 | 8.91 µM [falling, partial curve, poor fit] | 
COCC(=O)Nc1cccc2ccccc12 | 1.84 µM [falling, full curve, poor fit] | 
COc1ccc(S(=O)(=O)NNC(=O)c2cc3cc4ccccc4nc3s2)cc1 | 10.3 µM [falling, partial curve] | 9.2 µM [rising, partial curve, poor fit]
COc1ccc(C2CC(c3cccc(Br)c3)=NN2c2ccc(S(N)(=O)=O)cc2)cc1 (stereo not given) | 4.11 µM [rising, single point] | 
O=C(NC(=S)Nc1nc(-c2ccc([N+](=O)[O-])cc2)cs1)c1ccco1 | 0.251 µM [rising, full curve, poor fit] | 
S=C(Nc1ccc(Cl)c(Cl)c1)N1CCOCC1 | 29.1 µM [rising, single point] | 
COc1cccc(C(C)NC(=O)Nc2cccc(C(F)(F)F)c2)c1 (stereo not given) | 12.6 µM [falling, partial curve, poor fit] | 
O=C(O)c1cccc(-n2c(/C=C/c3ccccc3)nc3ccccc3c2=O)c1 | 2.24 µM [falling, full curve, poor fit] | 
Cc1ccc(S(=O)(=O)Nc2cc3c4c(c2)CCN4C(=O)CC3)cc1 | 29.1 µM [rising, single point] | 18.4 µM [falling, single point]
Cc1ccc(S(=O)(=O)NNC(=O)c2cc3cc4ccccc4nc3s2)cc1 | 12.6 µM [falling, single point] | 
Oc1[nH]c2ccc(Br)cc2c1N=NC(=S)N1CCOCC1 | 5.62 µM [rising, single point] | 0.562 µM [falling, full curve, poor fit]
CNCCCCOc1ccccc1-c1ccccc1 | 16.4 µM [falling, single point] | 
CCCCCCNc1cc(C)oc(=O)c1C(C)=O | 14.6 µM [rising, partial curve, poor fit] | 
Cc1ccc(C(=O)Nc2ccc(O)cc2C(=O)O)cc1 | 1.16 µM [falling, full curve] | 
CN(Cc1ccccc1Cl)C(=O)CCNC(=O)c1ccco1 | 0.0164 µM [falling, full curve, poor fit] | 
Cc1cc(C)cc(Oc2ccccc2C=O)c1 | 16.4 µM [rising, single point] | 

9 consecutive records from above, for reference:
Structure (SMILES) | AC50 [1] | AC50 [2]
COc1cc2sc(-c3ccc(S(C)(=O)=O)cc3)c(C#CCO)c2cc1OC | 29.1 µM [rising, single point] | 16.4 µM [falling, partial curve]
CC(=O)c1ccc(Nc2cc(C)nc3c(C)cccc23)cc1 | 35.5 µM [falling, single point] | 17.8 µM [rising, single point]
Cc1cc(F)ccc1S(=O)(=O)NCC(c1cccnc1)N1CCc2ccccc21 (stereo not given) | 8.91 µM [falling, partial curve] | 
CCOc1ccccc1NC(=O)CSC1=NN2CCCC(=O)N=C2S1 | 8.91 µM [falling, partial curve, poor fit] | 
COCC(=O)Nc1cccc2ccccc12 | 1.84 µM [falling, full curve, poor fit] | 
COc1ccc(S(=O)(=O)NNC(=O)c2cc3cc4ccccc4nc3s2)cc1 | 10.3 µM [falling, partial curve] | 9.2 µM [rising, partial curve, poor fit]
COc1ccc(C2CC(c3cccc(Br)c3)=NN2c2ccc(S(N)(=O)=O)cc2)cc1 (stereo not given) | 4.11 µM [rising, single point] | 
O=C(NC(=S)Nc1nc(-c2ccc([N+](=O)[O-])cc2)cs1)c1ccco1 | 0.251 µM [rising, full curve, poor fit] | 
S=C(Nc1ccc(Cl)c(Cl)c1)N1CCOCC1 | 29.1 µM [rising, single point] | 

Further results:

Structure (SMILES) | AC50 [1] | AC50 [2]
Cc1onc(-c2ccccc2)c1C(=O)OCC(=O)NC(C)c1ccc(Cl)cc1 (stereo not given) | 13 µM [rising, partial curve, poor fit] | 
C=C(C)CN(CC)c1nc(N)c(C#N)c(CC#N)c1C#N | 10 µM [falling, partial curve] | 
Cc1ccc(S(=O)(=O)NCc2ccc(C(=O)N3CCc4ccccc4C3)cc2)cc1 | 2.91 µM [rising, single point] | 
O=C(NCc1ccccc1)C1=C[C@H](C2CC2)C[C@H](OCc2ccc(CO)cc2)O1 | 2.82 µM [rising, partial curve] | 
CCn1c(SCC(=O)Nc2cc(C)on2)nc2c(c1=O)SCC2 | 12.6 µM [rising, partial curve, poor fit] | 
Nc1nc(NCc2ccccc2Cl)n(-c2ccccc2)n1 | 2 µM [falling, full curve, poor fit] | 
COc1ccc2c(C)cc(=O)[nH]c2c1 | 29.1 µM [falling, single point] | 
CCN(CC)c1ccc2nc3ccccc3[n+](CC)c2c1 | 15.8 µM [falling, single point] | 14.1 µM [rising, partial curve, poor fit]
CCOc1cc(C(=O)CCC(=O)OCC(=O)Nc2ccc(C)c(S(=O)(=O)N(C)C)c2)ccc1O | 4.47 µM [rising, partial curve, poor fit] | 
CCN(CC)CCNc1nc2cc(OC)c(OC)cc2c2nc(-c3ccccc3)nn12 |  | 4.61 µM [rising, partial curve, poor fit]
CC(=O)N1CCCc2cc(S(=O)(=O)N3CCCC(C(=O)N4CCN(c5cccc(Cl)c5)CC4)C3)ccc21 (stereo not given) | 35.5 µM [falling, single point] | 
COc1cc(C(=O)NC(=S)Nc2nc(-c3ccc(F)cc3)cs2)cc(OC)c1OC | 5.01 µM [rising, partial curve, poor fit] | 
CC1CCCCN1C(=O)C1CC(c2ccc(F)cc2)=NO1 (stereo not given) | 7.94 µM [rising, partial curve] | 
COc1ccc(NC(=O)CN2CCN(CC(=O)Nc3ccc(F)cc3F)CC2)cc1 | 5.01 µM [falling, partial curve] | 
CC(C)CC(OC(=O)c1cccs1)C(=O)NCc1ccco1 (stereo not given) | 16.4 µM [falling, single point] | 
O=C(Nc1cccc(Cl)c1)Nc1nc(-c2ccc(Cl)cc2)cs1 | 3.16 µM [rising, full curve, poor fit] | 
CC(SCC(=O)NC12CC3CC(CC(C3)C1)C2)C(=O)O (stereo not given) | 1.03 µM [falling, partial curve, poor fit] | 
O=C1NC(=Nc2cccc(O)c2)S/C1=C\c1cccc([N+](=O)[O-])c1 | 28.2 µM [falling, single point] | 
CCOC(=O)c1cnn2cc(-c3[nH]ncc3[N+](=O)[O-])cnc12 | 0.0103 µM [rising, full curve, poor fit] | 
